These are yes or no findings as the source states them, for the method shown. Some results given as binding are weak or reduced against the parent protein; the word gives no strength.

Amino acid sequences for entries named in this document (tags omitted). A change or cut given only in a name is not applied to a line headed by its entry. Residues count along the entry.
UniProt O95166: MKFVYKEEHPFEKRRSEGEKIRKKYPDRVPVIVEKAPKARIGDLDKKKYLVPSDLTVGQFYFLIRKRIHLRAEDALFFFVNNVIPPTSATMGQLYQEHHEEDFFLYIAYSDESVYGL
UniProt P60520: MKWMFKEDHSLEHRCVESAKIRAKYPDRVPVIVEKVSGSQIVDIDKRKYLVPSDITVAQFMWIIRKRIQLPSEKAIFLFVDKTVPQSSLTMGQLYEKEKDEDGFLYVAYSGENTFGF
UniProt Q9BXW4, residues 1-126: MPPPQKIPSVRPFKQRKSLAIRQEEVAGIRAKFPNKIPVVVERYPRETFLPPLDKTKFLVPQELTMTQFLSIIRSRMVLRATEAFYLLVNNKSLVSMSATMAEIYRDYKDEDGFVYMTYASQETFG
UniProt Q8TDY2, residues 1450-1594: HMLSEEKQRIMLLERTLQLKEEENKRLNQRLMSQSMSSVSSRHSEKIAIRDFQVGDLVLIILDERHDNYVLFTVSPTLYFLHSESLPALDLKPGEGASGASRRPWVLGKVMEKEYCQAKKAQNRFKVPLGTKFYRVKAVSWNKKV
UniProt Q9ULG6: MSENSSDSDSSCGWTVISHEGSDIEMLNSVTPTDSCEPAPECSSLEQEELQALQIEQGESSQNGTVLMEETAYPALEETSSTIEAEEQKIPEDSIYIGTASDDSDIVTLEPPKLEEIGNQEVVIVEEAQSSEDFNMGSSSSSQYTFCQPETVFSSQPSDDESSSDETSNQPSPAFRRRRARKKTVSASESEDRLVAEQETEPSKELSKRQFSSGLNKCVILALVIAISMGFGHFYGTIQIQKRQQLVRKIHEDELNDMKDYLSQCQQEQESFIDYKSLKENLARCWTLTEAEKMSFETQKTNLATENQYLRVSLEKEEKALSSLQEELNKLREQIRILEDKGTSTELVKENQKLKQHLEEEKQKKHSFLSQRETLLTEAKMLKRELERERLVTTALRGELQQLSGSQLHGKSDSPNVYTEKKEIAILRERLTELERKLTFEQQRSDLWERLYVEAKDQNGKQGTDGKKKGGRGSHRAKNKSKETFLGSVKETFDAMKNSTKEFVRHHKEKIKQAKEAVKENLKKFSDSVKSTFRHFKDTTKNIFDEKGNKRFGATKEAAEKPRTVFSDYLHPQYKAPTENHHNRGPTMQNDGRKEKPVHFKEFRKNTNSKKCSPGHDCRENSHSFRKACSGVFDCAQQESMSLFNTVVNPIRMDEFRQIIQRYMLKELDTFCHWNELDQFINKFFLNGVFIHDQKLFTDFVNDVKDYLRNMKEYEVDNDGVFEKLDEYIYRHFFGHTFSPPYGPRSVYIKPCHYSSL
Optineurin(33–168) (Q96CV9, residues 33-168): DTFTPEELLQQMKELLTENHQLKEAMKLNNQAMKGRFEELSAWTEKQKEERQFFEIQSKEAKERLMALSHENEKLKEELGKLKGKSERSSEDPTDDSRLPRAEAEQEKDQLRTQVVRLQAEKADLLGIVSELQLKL
Optineurin(186–209) (Q96CV9, residues 186-209): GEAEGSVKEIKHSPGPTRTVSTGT

Among the targets are GABARAP (UniProt O95166); GABARAPL2 (UniProt P60520); LC3A (UniProt Q9H492); LC3C (UniProt Q9BXW4).
Holding throughout (test): SEC; analytical gel filtration of purified proteins and their mixtures; Superose 200 increase 10/300 GL; 20 mM Tris-HCl pH 7.9, 100 mM NaCl, 1 mM DTT; both purified
In assay [1] the target is nano-FIP200(1450–1594) (human) (UniProt Q8TDY2).

“CCPG1 FIR2 (residues 99–113), recombinant (from UniProt Q9ULG6 99-113) (domain or fragment)”: the binding result with GABARAP, in the assay with GABARAPL2, in the assay with LC3A and with LC3C was “binds” throughout.

In the case of “Optineurin(33–168) (from UniProt Q96CV9 33-168) (domain or fragment)”, the binding entry in assay [1] is given as “no binding”.

Take “Optineurin(186–209) (from UniProt Q96CV9 186-209) (domain or fragment)”: the binding result in assay [1] was “no binding”.

For the origin of these results see article PMC7946963, “Phosphorylation regulates the binding of autophagy receptors to FIP200 Claw domain for selective autophagy initiation” (Nature Communications, 2021).
